# Values joined by “and” are separate entries in the source; they are usually repeats but may differ in a detail not shown here. Equal values may be shown once. The list shows a part of the results. The main result of the screen is listed elsewhere. These columns were measured beside it and carry no call. Most of these compounds were active or inconclusive in the main read-out, so they are no random draw. The note in brackets gives the kind of curve behind each potency; many fits are weak.
# Assay: qHTS Assay to Find Inhibitors of Chronic Active B-Cell Receptor Signaling
# Settings: ABC-DLBCL IkBa-CBG/CBR reporter, luminescence ratio (green luciferase fused to IkBa over red control in TMD8 lymphoma cells), 4 h; measured here: CBR red luminescence, cell number
# Summary of the method: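 TMD8 human ABC-DLBCL cells with doxycycline-inducible IκBα–green luciferase fusion and unfused red luciferase, in 0.5% FBS medium; compounds up to 46 uM, 4 h at 37C. Green/red luminescence ratio, filter-overlap corrected, fitted to concentration-response curves.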
row,SMILES,AC50
1,Cc1ccc2nc(SCC(=O)Nc3ccc(F)c([N+](=O)[O-])c3)[nH]c2c1,"29.1 µM [falling, single point]"
2,CCO[C@@H]1OC(C(N)=O)=C[C@H](C2CCCCC2)[C@H]1CCCO,"3.98 µM [rising, single point]"
3,N/C(=N\OC(=O)c1cccs1)c1cccc(Br)c1,"5.62 µM [rising, partial curve]"
4,O=C(Nc1ccc2c(c1)OCCO2)c1cnc2n(c1=O)CCS2,"4.61 µM [falling, full curve]"
5,Cn1c(=S)[nH]c(=O)c2ncc(=O)[nH]c21,"31.6 µM [falling, partial curve, poor fit]"
6,S=C(Nc1ccc(Cl)cc1Cl)NC1CCCCC1,"35.5 µM [falling, single point]"
7,O=C(CC(C(=O)O)c1cccc(Cl)c1)c1ccccc1 (stereo not drawn),"6.31 µM [rising, single point]"
8,CN1CCN(CCCN2c3ccccc3Sc3ccc(Cl)cc32)CC1,"35.5 µM [falling, single point] and 10.3 µM [falling, partial curve, poor fit]"
9,CCOc1ccc(C2C(C#N)=C(N)N3C(=C2C#N)Sc2ccccc23)cc1 (stereo not drawn),"35.5 µM [rising, single point]"
10,COc1ccc(OCc2cc(/C=N\NC(=O)c3ccccc3)ccc2OC)cc1,"12.6 µM [falling, partial curve, poor fit]"
11,O=C(COC(=O)c1cc(Cl)ccc1[N+](=O)[O-])Nc1cccc2ccccc12,"18.4 µM [falling, single point]"
12,O=C(O)/C=C/c1nc(-c2ccccc2)n2ccccc12,"13 µM [falling, partial curve, poor fit]"
13,CCCNC(=S)N1CCN(c2nc(C)nc3sc4c(c23)CCCC4)CC1,"11.2 µM [falling, single point]"
14,CCOC(=O)CN1C(=O)SC(CC(=O)Nc2nccs2)C1=O (stereo not drawn),"14.6 µM [falling, single point]"
15,COc1ccccc1CNC(=O)COC(=O)c1cccc(S(=O)(=O)N2CCOCC2)c1,"20.6 µM [rising, partial curve, poor fit]"
16,C=CC[N+]1(CC(=O)NCc2ccc(NC(C)=O)cc2)CCOCC1,"3.16 µM [falling, partial curve, poor fit]"
17,N#Cc1cccc(C#N)c1NCC1CCCO1 (stereo not drawn),"22.4 µM [rising, single point]"
18,CCOc1ccc(OCC(O)CNC2CCN(Cc3ccccc3)CC2)cc1 (stereo not drawn),"20.6 µM [falling, single point]"

# Exported as tab-separated lines: part of the list above
row	SMILES	AC50
1	Cc1ccc2nc(SCC(=O)Nc3ccc(F)c([N+](=O)[O-])c3)[nH]c2c1	29.1 µM [falling, single point]
2	CCO[C@@H]1OC(C(N)=O)=C[C@H](C2CCCCC2)[C@H]1CCCO	3.98 µM [rising, single point]
3	N/C(=N\OC(=O)c1cccs1)c1cccc(Br)c1	5.62 µM [rising, partial curve]

# Reference: PubChem BioAssay AID493014 (National Center for Advancing Translational Sciences (NCATS), 2011)
